From US10457707B2 (priority 2015, dated 2019)

Experiment: general procedure: solution-phase peptide synthesis; TPTU/HOBT/DIEA; HATU/DIEA
Conditions: late stage modification step

| Substance | step yield | step yield (on macrocycle C) | other results |
| --- | --- | --- | --- |
| (S)-3-(3,5-difluorophenyl)-N-((2R,6S,8aS,14aS,20S,23aS)-2,6-dimethyl-5,8,14,19,23-pentaoxooctadecahydro-1H,5H,14H,19H-pyrido[2,1-i]dipyrrolo[2,1-c:2′,1′-l][1]oxa[4,7,10,13]tetraazacyclohexadecin-20-yl)-2-(3-(4-ethylphenyl)ureido)propanamide | 44% | – | – |
| (S)-3-(3,5-difluorophenyl)-N-((2R,6S,8aS,14aS,20S,23aS)-2,6-dimethyl-5,8,14,19,23-pentaoxooctadecahydro-1H,5H,14H,19H-pyrido[2,1-i]dipyrrolo[2,1-c:2′,1′-l][1]oxa[4,7,10,13]tetraazacyclohexadecin-20-yl)-2-(3-(p-tolyl)ureido)propanamide | – | 31% | – |
| (S)-3-(3,5-difluorophenyl)-N-((2R,6S,8aS,14aS,20S,23aS)-2-fluoro-6-methyl-5,8,14,19,23-pentaoxooctadecahydro-1H,5H,14H,19H-pyrido[2,1-i]dipyrrolo[2,1-c:2′,1′-l][1]oxa[4,7,10,13]tetraazacyclohexadecin-20-yl)-2-(3-(p-tolyl)ureido)propanamide | – | 17.9% | – |
| (S)-3-(3,5-difluorophenyl)-N-((2R,6S,9R,11aS,17S,20aS)-9-((R)-1-hydroxyethyl)-2,6,10-trimethyl-5,8,11,16,20-pentaoxohexadecahydro-1H,5H,16H-dipyrrolo[2,1-c:2′,1′-l][1]oxa[4,7,10,13]tetraazacyclohexadecin-17-yl)-2-(3-(p-tolyl)ureido)propanamide | 35% | – | – |
| (S)-3-(3,5-difluorophenyl)-N-((2R,6S,9S,11aS,17S,18S,20aS)-9-((R)-1-hydroxyethyl)-2,6,10,18-tetramethyl-5,8,11,16,20-pentaoxohexadecahydro-1H,5H,16H-dipyrrolo[2,1-c:2′,1′-l][1]oxa[4,7,10,13]tetraazacyclohexadecin-17-yl)-2-(3-(4-(trifluoromethoxy)phenyl)ureido)propanamide | – | 68.3% | – |
| (S)-3-(3,5-difluorophenyl)-N-((2S,6S,8aS,14aS,20S,23aS)-2,6-dimethyl-5,8,14,19,23-pentaoxooctadecahydro-1H,5H,14H,19H-pyrido[2,1-i]dipyrrolo[2,1-c:2′,1′-l][1]oxa[4,7,10,13]tetraazacyclohexadecin-20-yl)-2-(3-(p-tolyl)ureido)propanamide | – | 26.3% | – |
| (S)-3-(3,5-difluorophenyl)-N-((2S,6S,8aS,14aS,20S,23aS)-2-fluoro-6-methyl-5,8,14,19,23-pentaoxooctadecahydro-1H,5H,14H,19H-pyrido[2,1-i]dipyrrolo[2,1-c:2′,1′-l][1]oxa[4,7,10,13]tetraazacyclohexadecin-20-yl)-2-(3-(p-tolyl)ureido)propanamide | – | 25.2% | – |
| (S)-3-(3,5-difluorophenyl)-N-((2S,6S,9S,11aS,13R,17S,18S,20aS)-13-hydroxy-2,6,9,10,18-pentamethyl-5,8,11,16,20-pentaoxohexadecahydro-1H,5H,16H-dipyrrolo[2,1-c:2′,1′-l][1]oxa[4,7,10,13]tetraazacyclohexadecin-17-yl)-2-(3-(4-(trifluoromethoxy)phenyl)ureido)propanamide | – | 34.8% | – |
| (S)-3-(3,5-difluorophenyl)-N-((2S,6S,9S,11aS,17S,18S,20aS)-9-((R)-1-hydroxyethyl)-2,6,10,18-tetramethyl-5,8,11,16,20-pentaoxohexadecahydro-1H,5H,16H-dipyrrolo[2,1-c:2′,1′-l][1]oxa[4,7,10,13]tetraazacyclohexadecin-17-yl)-2-(3-(4-(trifluoromethoxy)phenyl)ureido)propanamide | – | 38.8% | – |
| (S)-3-(3,5-difluorophenyl)-N-((6S,8aS,14aS,20S,21S,23aS)-6,21-dimethyl-5,8,14,19,23-pentaoxooctadecahydro-1H,5H,14H,19H-pyrido[2,1-i]dipyrrolo[2,1-c:2′,1′-l][1]oxa[4,7,10,13]tetraazacyclohexadecin-20-yl)-2-(3-(p-tolyl)ureido)propanamide | 54% | – | – |
| (S)—N-((2R,6S,8aS,14aS,20S,23aS)-2,6-dimethyl-5,8,14,19,23-pentaoxooctadecahydro-1H,5H,14H,19H-pyrido[2,1-i]dipyrrolo[2,1-c:2′,1′-l][1]oxa[4,7,10,13]tetraazacyclohexadecin-20-yl)-2-(3-(1-methyl-1H-indol-6-yl)ureido)-3-phenylpropanamide | 44.1% | – | – |
| (S)—N-((2R,6S,8aS,14aS,20S,23aS)-2,6-dimethyl-5,8,14,19,23-pentaoxooctadecahydro-1H,5H,14H,19H-pyrido[2,1-i]dipyrrolo[2,1-c:2′,1′-l][1]oxa[4,7,10,13]tetraazacyclohexadecin-20-yl)-2-(3-(1-methylindolin-5-yl)ureido)-3-phenylpropanamide | 44.1% | – | – |
| (S)—N-((2R,6S,8aS,14aS,20S,23aS)-2,6-dimethyl-5,8,14,19,23-pentaoxooctadecahydro-1H,5H,14H,19H-pyrido[2,1-i]dipyrrolo[2,1-c:2′,1′-l][1]oxa[4,7,10,13]tetraazacyclohexadecin-20-yl)-2-(3-(3-ethylphenyl)ureido)-3-phenylpropanamide | 22.7% | – | – |
| (S)—N-((2R,6S,8aS,14aS,20S,23aS)-2,6-dimethyl-5,8,14,19,23-pentaoxooctadecahydro-1H,5H,14H,19H-pyrido[2,1-i]dipyrrolo[2,1-c:2′,1′-l][1]oxa[4,7,10,13]tetraazacyclohexadecin-20-yl)-2-(3-(3-methoxyphenyl)ureido)-3-phenylpropanamide | 25.8% | – | – |
| (S)—N-((2R,6S,8aS,14aS,20S,23aS)-2,6-dimethyl-5,8,14,19,23-pentaoxooctadecahydro-1H,5H,14H,19H-pyrido[2,1-i]dipyrrolo[2,1-c:2′,1′-l][1]oxa[4,7,10,13]tetraazacyclohexadecin-20-yl)-2-(3-(4-(dimethylamino)phenyl)ureido)-3-phenylpropanamide | 11.5% | – | – |
| (S)—N-((2R,6S,8aS,14aS,20S,23aS)-2,6-dimethyl-5,8,14,19,23-pentaoxooctadecahydro-1H,5H,14H,19H-pyrido[2,1-i]dipyrrolo[2,1-c:2′,1′-l][1]oxa[4,7,10,13]tetraazacyclohexadecin-20-yl)-2-(3-(4-Methoxyphenyl)ureido)-3-phenylpropanamide | 20.9% | – | – |
| (S)—N-((2R,6S,8aS,14aS,20S,23aS)-2,6-dimethyl-5,8,14,19,23-pentaoxooctadecahydro-1H,5H,14H,19H-pyrido[2,1-i]dipyrrolo[2,1-c:2′,1′-l][1]oxa[4,7,10,13]tetraazacyclohexadecin-20-yl)-2-(3-(4-ethylphenyl)ureido)-3-phenylpropanamide | 16% | – | – |
| (S)—N-((2R,6S,8aS,14aS,20S,23aS)-2,6-dimethyl-5,8,14,19,23-pentaoxooctadecahydro-1H,5H,14H,19H-pyrido[2,1-i]dipyrrolo[2,1-c:2′,1′-l][1]oxa[4,7,10,13]tetraazacyclohexadecin-20-yl)-3-phenyl-2-(3-(4-(trifluoromethoxy)phenyl)ureido)propanamide [2] | 41% | – | – |
| (S)—N-((2R,6S,8aS,14aS,20S,23aS)-2,6-dimethyl-5,8,14,19,23-pentaoxooctadecahydro-1H,5H,14H,19H-pyrido[2,1-i]dipyrrolo[2,1-c:2′,1′-l][1]oxa[4,7,10,13]tetraazacyclohexadecin-20-yl)-3-phenyl-2-(3-(p-tolyl)ureido)propanamide | – | 30% | – |
| (S)—N-((2R,6S,8aS,14aS,20S,23aS)-2,6-dimethyl-5,8,14,19,23-pentaoxooctadecahydro-1H,5H,14H,19H-pyrido[2,1-i]dipyrrolo[2,1-c:2′,1′-l][1]oxa[4,7,10,13]tetraazacyclohexadecin-20-yl)-3-phenyl-2-(3-phenylureido)propanamide | 40% | – | – |
| (S)—N-((2S,6S,8aS,14aS,20S,23aS)-2,6-dimethyl-5,8,14,19,23-pentaoxooctadecahydro-1H,5H,14H,19H-pyrido[2,1-i]dipyrrolo[2,1-c:2′,1′-l][1]oxa[4,7,10,13]tetraazacyclohexadecin-20-yl)-3-phenyl-2-(3-(4-(trifluoromethoxy)phenyl)ureido)propanamide | – | 39.9% | – |
| (S)—N-((2S,6S,8aS,14aS,20S,23aS)-2,6-dimethyl-5,8,14,19,23-pentaoxooctadecahydro-1H,5H,14H,19H-pyrido[2,1-i]dipyrrolo[2,1-c:2′,1′-l][1]oxa[4,7,10,13]tetraazacyclohexadecin-20-yl)-3-phenyl-2-(3-(p-tolyl)ureido)propanamide | – | 43.6% | – |
| sodium (2R,6S,8aS,14aS,16R,20S,21S,23aS)-20-((S)-3-(3,5-difluorophenyl)-2-(3-(3,4-dimethylphenyl)ureido)propanamido)-2,6,21-trimethyl-5,8,14,19,23-pentaoxooctadecahydro-1H,5H,14H,19H-pyrido[2,1-i]dipyrrolo[2,1-c:2′,1′-l][1]oxa | – | – | step yield (sodium salt): about 99% |
| sodium (2R,6S,8aS,14aS,16R,20S,21S,23aS)-20-((S)-3-(3,5-difluorophenyl)-2-(3-(p-tolyl)ureido)propanamido)-2,6,21-trimethyl-5,8,14,19,23-pentaoxooctadecahydro-1H,5H,14H,19H-pyrido[2,1-i]dipyrrolo[2,1-c:2′,1′-l][1]oxa[4,7,10,13] | – | – | step yield (sodium salt): about 79% |
